Consider three compounds from patent US12577138B2, “Using Daphnia for bioremediation” (priority 2019, dated 2026).

The data set deals with Daphnia magna. Nature of the data set: Removal of pharmaceuticals and pesticides from spiked borehole water by Daphnia magna, daily UPLC/MS over five days.

Take `CC(=O)Nc1ccc(O)cc1` [paracetamol]: the “concentration as % of the starting concentration” value (day 3, single genotype, borehole water) was determined as 27%. The “concentration in water after exposure to Daphnia magna” value (day 3, starting concentration 4000 μg/L, single genotype, borehole water) stood at 2900 µg/L.
Regarding `CCNc1nc(Cl)nc(NC(C)C)n1` [atrazine], for the setting “day 5 / after 5 days”, the “concentration as % of the initial concentration” value came to 36%.
For the compound `O=C(O)Cc1ccccc1Nc1c(Cl)cccc1Cl` [Diclofenac], the “reduction in the concentration” value (Daphnia in the water sample for 3 days) is recorded as 84%. Where the note is “after 5 days (4 days of the Daphnia being in the water)”, the “concentration in water after exposure to Daphnia magna” value was 0 µg/L.
